Assay results reported in PubChem BioAssay AID588497 (NMMLSC, 2011).
The whole screen tested about 360,000 compounds, of which about 780 (0.22%) were called active. This list was built around the results that the source calls inconclusive (neither active nor inactive); the mix of calls is not that of the screen. No stated cut-off is given here; in the data, active means inhibition above about 35% (passing the limit was not always enough); inconclusive means no clear call, values can overlap the other calls.

system: Botulinum neurotoxin type F light chain protease (Clostridium botulinum); assay: BoNT/F light chain protease inhibitors, primary screen, biochemical, flow cytometry, MLPCN library (AID 588497); details: Multiplex microsphere protease cleavage assay, at 10 µM, active compounds read high; further: plate controls were buffer without enzyme for full effect and enzyme alone for no effect

Row | Structure (SMILES) | inhibition
1 | O=c1[nH]c(=O)n(Cc2ccco2)c(O)c1C=NCCN1CCNCC1 | inconclusive: 22.2%
2 | CC1(C)N2CC3([N+](=O)[O-])CN1CC([N+](=O)[O-])(C2)C3 | inconclusive: 79.3%
3 | CCCCn1c(N)c(N(C(=O)CSc2nnc(C)n2-c2ccccc2)C2CCCC2)c(=O)[nH]c1=O | inactive: -7.8%
4 | CCn1nnnc1SCC(=O)Nc1cccc(C)n1 | inconclusive: 1.1%
5 | O=c1[nH]cnc(O)c1C(c1ccc([N+](=O)[O-])cc1)c1c(O)nc[nH]c1=O | inconclusive: 10.1%
6 | Cc1ccc2c(C(=O)CN3CCN(C(=O)c4ccco4)CC3)c(C)[nH]c2c1 | inconclusive: -48.5%
7 | CCOc1ccc(-c2ncncc2-c2ccc(OC)c(OC)c2)c(O)c1 | inconclusive: -7.5%
8 | Cc1ccc(C(=O)N/C(=C\c2cccs2)C(=O)NCCCN2CCOCC2)cc1 | inactive: -0.1%
9 | O=C(CSc1nnc(-c2ccc(O)cc2)o1)Nc1ccccc1Br | inactive: -4.8%
10 | CCOC(=O)c1c(NC(=O)c2ccccc2C(=O)O)sc2c1CCCC2 | inconclusive: -1%
11 | COc1ccc(CCNC(=O)c2cccc(C(=O)NCCc3ccc(OC)cc3)n2)cc1 | inconclusive: -0.4%
12 | COCCCC1CCN(C(=O)C2CCC(=O)N(CC3CCCCC3)C2)CC1 (stereo not drawn) | inactive: 3.3%
13 | COc1ccc(/C=N/NC(=O)c2ccc[nH]2)cc1 | inconclusive: -0.4%
14 | O=C1CC(C(=O)N2CCN(c3ccccc3O)CC2)CN1Cc1ccccc1 (stereo not drawn) | inactive: -5.3%
15 | O=C1C(=C(O)c2ccccc2)C(=O)c2ccccc21 | inactive: -11.4%
16 | CC1(/[N+]([O-])=C/c2ccc(Cl)cc2Cl)CCCCC1=O (stereo not drawn) | inconclusive: 51.5%
17 | Cn1c(CN2CCN(CCO)CC2)c(C#N)c2ccccc21 | inconclusive: 45.1%
18 | NCC(c1ccc(Cl)cc1Cl)c1c[nH]c2ccccc12 (stereo not drawn) | inconclusive: -43.4%
19 | CCOc1ncccc1C(=O)OCC(=O)NC1CCCCCC1 | inconclusive: 1%
20 | CC(C)NS(=O)(=O)c1ccc(NC(=O)NC2CCCCC2)cc1 | inactive: -0.5%
21 | Cc1cc(C(=O)N2CCN(c3cccc(Cl)c3)CC2)c(C)o1 | inconclusive: 1.7%
22 | Cc1ccsc1/C=N/Nc1ncc(Cl)cc1Cl | inconclusive: -16.4%
23 | CCCCn1c(N)c(N(CC(C)C)C(=O)c2ccco2)c(=O)[nH]c1=O | inactive: -11.5%
24 | Cn1c(N)c(N=Nc2ccc(S(N)(=O)=O)cc2)c(=O)n(C)c1=O | inconclusive: 10.7%

Row | Structure (SMILES) | inhibition
25 | Cc1cc(C)n(-c2nc(NCCCN(C)C)c3c4c(sc3n2)COC(C)(C)C4)n1 | inconclusive: -10.5%
26 | O=C(CSc1ccccc1C(=O)O)Nc1cccc(C(=O)O)c1 | inactive: 3.2%
27 | Nc1nc(COc2ccccc2C=O)nc(Nc2ccccc2)n1 | inconclusive: -27.6%
28 | Cc1cccn2c(=O)c(/C=C(\C#N)C(=O)NCc3ccco3)c(N3CCCCCC3)nc12 | inconclusive: -56.6%
29 | O=C(O)C1CCCN1C(=O)C12CC3CC(CC(C3)C1)C2 (stereo not drawn) | inconclusive: -26.6%
30 | CCOc1ccc(CC(=O)NNC(=S)NC)cc1Br | inactive: 0.1%
31 | CCOC(=O)c1[nH]c2cc3c(cc2c1NC(=O)CN1CCc2ccccc2C1)OCO3 | inactive: 0.4%
32 | COc1ccc(CN2CCNC(=O)C2CC(=O)NC2CCCC2)c(C)c1C (stereo not drawn) | inactive: -1.8%
33 | CC(=O)c1sc(-c2ccc(F)cc2)cc1NS(=O)(=O)c1ccccc1 | inconclusive: 7.7%
34 | O=[N+]([O-])c1ccc(Cl)c(/C=N/n2c(-c3ccncc3)n[nH]c2=S)c1 | inconclusive: 33.2%
35 | O=C(CCOc1ccccc1)Nc1ccccc1F | inactive: -13.4%
36 | Cc1cc(N/N=C/c2ccc(O)cc2O)c2ccccc2n1 | inconclusive: -22%
37 | COc1cc(-c2noc(CCCC(=O)NC3CCCCC3)n2)cc(OC)c1OC | inactive: -2.9%
38 | Cc1ccc(NC(=O)CSCC(=O)Nc2nnc(C)s2)cc1 | inconclusive: -5.2%
39 | COCCC(=O)N1CCC(Oc2ccc(C(=O)NCCSC)cc2)CC1 | inconclusive: -24%
40 | Cc1cc(NC(=O)CC2(CC(=O)O)CCCC2)n(C)n1 | inconclusive: 44.6%
41 | COc1cc(/C=N/N2CCCCC2)cc([N+](=O)[O-])c1O | inconclusive: -19.3%
42 | Fc1ccc(-n2nnc(-c3ccccc3Cl)n2)cc1 | inconclusive: -11.7%
43 | COc1ccc(C(=O)NCCNC(=O)c2cnccn2)cc1 | inactive: -12.1%
44 | CCOC(=O)c1[nH]c2ccc(OC)cc2c1NC(=O)c1ccccc1C(=O)O | inconclusive: -5.1%
45 | Cc1ccc(-c2nc(=S)c3c(n2Cc2cccnc2)CC(C)(C)OC3)cc1 | inconclusive: 21.4%
46 | Cc1cc(NC(=O)CSCC(=O)OCC(=O)Nc2cc(C)c(C)cc2[N+](=O)[O-])no1 | inconclusive: -6.9%
47 | COc1ccc(-c2cc3nc(NCC4CCCCC4)n(C)c(=O)c3s2)cc1OC | inactive: -0.5%
48 | O=C(Nc1cccc([N+](=O)[O-])c1)c1ccc2snnc2c1 | inactive: 1.8%

Pulled one by one from the list above:
Row | Structure (SMILES) | inhibition
23 | CCCCn1c(N)c(N(CC(C)C)C(=O)c2ccco2)c(=O)[nH]c1=O | inactive: -11.5%
14 | O=C1CC(C(=O)N2CCN(c3ccccc3O)CC2)CN1Cc1ccccc1 (stereo not drawn) | inactive: -5.3%
42 | Fc1ccc(-n2nnc(-c3ccccc3Cl)n2)cc1 | inconclusive: -11.7%
41 | COc1cc(/C=N/N2CCCCC2)cc([N+](=O)[O-])c1O | inconclusive: -19.3%

Additional results:

Row | Structure (SMILES) | inhibition
49 | O=C(Nc1ccc(F)c(Cl)c1)C1CC2CCC1C2 (stereo not drawn) | inactive: 4.2%
50 | CCOc1ccc(S(=O)(=O)N(C)c2ccc(OCC(=O)NCCc3ccc(OC)cc3)cc2)cc1 | inactive: 1.3%
51 | Cc1cc(=O)oc2cc(OCC(=O)N3CCN(Cc4ccccc4)CC3)ccc12 | inactive: -6.8%
52 | CCN(CC)CCCNC(=O)c1[nH]c2ccccc2c1Sc1ccc(Cl)cc1 | inconclusive: -34.3%
53 | CCCN(Cc1nnc(-c2cccs2)o1)C(=O)c1cccc(S(=O)(=O)N2CCOCC2)c1 | inconclusive: -8%
54 | Cn1c(=O)n(C)c2cc(NC(=O)CCc3ccccc3)c(Br)cc21 | inconclusive: 0.1%
55 | COc1ccc(-n2ncc3c(=O)n(CC(=O)N(C(C)C)C(C)C)cnc32)cc1 | inconclusive: 4.6%
56 | Cc1ccc(C)n1-c1cccc(C(=O)Nc2ccccc2)c1 | inconclusive: -16.9%
57 | COc1ccc(OC)c(S(=O)(=O)N2CCN(Cc3ccccc3)CC2)c1 | inconclusive: 23.1%
58 | COCCN1C(=O)C(CC(=O)Nc2ccccc2)SC1=Nc1ccc(OC)cc1 (stereo not drawn) | inconclusive: -17.5%
59 | COCc1cc(C)nc(SCc2ccc([N+](=O)[O-])cc2)c1C#N | inconclusive: -2.5%
60 | CC(=O)CCC(=O)NC1CCCc2c1cnn2-c1ccc(C(C)(C)C)cc1 (stereo not drawn) | inconclusive: -8.4%
61 | C=CCNC(=O)N[C@@H](Cc1ccccc1)C(=O)OC | inconclusive: -23.7%
62 | CCOc1cc(S(=O)(=O)Nc2ccc(Cl)cn2)ccc1Cl | inconclusive: 6.4%
63 | O=C(O)c1ccc(COc2ccccc2Cl)cc1 | inactive: -3.8%
64 | COc1ccc(C(=O)COC(=O)C(CC(C)C)N2C(=O)c3ccccc3C2=O)cc1 (stereo not drawn) | inconclusive: 7.3%
65 | Cc1ccc2cccc(OCc3ccc(Br)cc3)c2n1 | active: 39.2%
66 | CC(=O)Nc1ccc(Nc2nc(C)nc3c2nnn3Cc2ccccc2Cl)cc1 | inconclusive: -0.3%
67 | O=c1cc[nH]c2c1ccc1c(=O)cc[nH]c12 | inconclusive: -6.9%
68 | COC(=O)C(C)n1nc(C)n(-c2ccc(C)cc2)c1=O (stereo not drawn) | inactive: 3.6%
69 | COc1ccc(Cl)cc1N(CC(=O)NCCSCc1ccccc1)S(C)(=O)=O | inconclusive: 14.6%
70 | CCN1C(=O)CSC1=Nc1ccc(OC)cc1 | inconclusive: 46.7%
71 | O=C(Nc1cccc(S(=O)(=O)N2CCCCCC2)c1)C1=COCCO1 | inconclusive: 2.7%
72 | Clc1ccc(-c2noc(COc3ccccc3)n2)cc1 | inactive: 0.6%

Part of the list above in order of length of the SMILES, rising:
Row | Structure (SMILES) | inhibition
70 | CCN1C(=O)CSC1=Nc1ccc(OC)cc1 | inconclusive: 46.7%
61 | C=CCNC(=O)N[C@@H](Cc1ccccc1)C(=O)OC | inconclusive: -23.7%
53 | CCCN(Cc1nnc(-c2cccs2)o1)C(=O)c1cccc(S(=O)(=O)N2CCOCC2)c1 | inconclusive: -8%

Following part

Row | Structure (SMILES) | inhibition
73 | COc1ccccc1C(NC(=O)CC(C)C)c1c(O)ccc2ccccc12 (stereo not drawn) | inconclusive: -10.1%
74 | CC(C)(C)NC(=O)CSc1nc2ccccc2n1-c1ccccc1 | inactive: -12.4%
75 | CCC(C)NC(=O)N1c2ccccc2Sc2ccccc21 (stereo not drawn) | inconclusive: 174%
76 | CN1C(=O)C(C)(C)c2cc(S(=O)(=O)NCc3ccc(Cl)cc3)ccc21 | inactive: -8.8%
77 | O=C(Nc1ccc(F)c([N+](=O)[O-])c1)C1CCCO1 (stereo not drawn) | inconclusive: 10%
78 | O=P1(NC2CCCC2)OCC2(CO1)COP(=O)(NC1CCCC1)OC2 (stereo not drawn) | inactive: -6.4%
79 | C(=N\N1CCN(c2ccccn2)CC1)/c1ccccn1 | inconclusive: -21.9%
80 | NC(=O)C1CCN(C(c2ccccc2Cl)c2nnnn2Cc2ccc3c(c2)OCO3)CC1 (stereo not drawn) | inactive: -2.2%
81 | COc1ccc(-c2noc(CCC(=O)NC3CCCC3)n2)cc1 | inconclusive: -14.3%
82 | CCCc1nc2ccc(Cl)cn2c1Cc1ccccc1 | inactive: 0%
83 | COCCOC(=O)C1=C(C)Nc2ncnn2C1c1ccco1 (stereo not drawn) | inconclusive: 15.7%
84 | CNc1nc(-c2c(C)n(C)c3ccc(OC)cc23)cs1 | inconclusive: -54.3%
85 | CCOC(=O)N=Nc1c2ccccc2c2nc3no[nH]c3nc12 | inactive: 4.6%
86 | COc1ccccc1C(=O)COC(=O)CCNS(=O)(=O)c1ccc(C)c(C)c1 | inconclusive: 16%
87 | Nc1cncc(C(=O)O)c1 | inconclusive: -51.3%
88 | N#Cc1c2ccccc2nc2ccccc12 | inactive: 8%
89 | CCOP(=O)(OCC)/C(=N/OC(=O)c1ccc(OC)cc1)C(N)=O | inconclusive: 44.1%
90 | Cc1ccc(OCC(=O)NCCN2CCOCC2)cc1C | inactive: 9.5%
91 | COc1ccc(Cl)cc1C(=O)NNC(=O)c1ccc(F)c(S(=O)(=O)N2CCOCC2)c1 | inactive: -7%
92 | CS(=O)(=O)N1CCC(C(=O)Nc2ccc(Cl)cc2)CC1 | inconclusive: 8.9%
93 | COc1cc(C(=O)Nc2ccccc2C(=O)Nc2ccccn2)cc(OC)c1OC | inconclusive: -1.3%
